# Source: the supplement of paper PMC8728848
# Some of the results follow.
# B1: B3GalT2 (Rattus norvegicus) (protein)
# chain: LMLQWRRRHCCFAKMSWNAKRSLFRTHLMGVLSLVFLFAMFLFFNHHDWLPGRPGFKENPVTYTFRGFRSTKTETNQSSLRNIWKEVVPQTLRPQTATNSNNTELSPQGVTGLENTLSANGSIYNEKGTGHPNSYHFKYIINEPEKCQEKSPFLILLIAAEPGQIEARRAIRQTWGNETLAPGIQITRIFLLGISIKLNGYLQHAIQEESIQYHDIIQQEYLDTYYNLTIKTLMGMNWVATYCPHTPYVMKTDSDMFVNTEYLIHKLLKPDLPPRHNYFTGYLMRGYAPNRNKDSKWYMPPDLYPSERYPVFCSGTGYVFSGDLAEKIFKVSLGIRRLHLEDVYVGICLAKLRVDPVPPPNEFVFNHWRVSYSSCKYSHLITSHQFQPSELIKYWNHLQQNKHNACVNAAKEKAGRYRHRKLH
# Assays:
# Experiment in all cases: glycan array binding signal (z-score within array); higher = stronger binding
# Settings in all cases: glycan notation: IUPAC condensed, linker removed
# [1] = biological target: Fuc(a1-2)[Gal(a1-3)]Gal(b1-4)GlcNAc(b1-2)Man(a1-3)[Fuc(a1-2)[Gal(a1-3)]Gal(b1-4)GlcNAc(b1-2)Man(a1-6)]Man(b1-4)GlcNAc(b1-4)GlcNAc
# Procedure, shortened: (§1)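 Arrays were curated from the Consortium for Functional Glycomics database, 3228 in total, and kept only where the protein sequence was available. Binding is expressed as a within-array Z-score. This score was averaged across arrays of the same protein sequence at different concentrations or buffers and across linkers, and negative values can be read as non-binding.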
# [2] = biological target: Fuc(a1-2)[Gal(a1-3)]Gal(b1-4)GlcNAc(b1-2)Man(a1-3)[Fuc(a1-2)[Gal(a1-3)]Gal(b1-4)GlcNAc(b1-2)Man(a1-6)]Man(b1-4)GlcNAc(b1-4)[Fuc(a1-6)]GlcNAc
# Procedure, shortened: as §1
# [3] = biological target: Fuc(a1-2)[Gal(a1-3)]Gal(b1-4)GlcNAc(b1-3)GalNAc
# Procedure, shortened: as §1
# [4] = biological target: Fuc(a1-2)[Gal(a1-3)]Gal(b1-4)GlcNAc(b1-6)GalNAc
# Procedure, shortened: as §1
# [5] = biological target: Fuc(a1-2)[Gal(a1-3)]Gal(b1-4)[Fuc(a1-3)]Glc
# Procedure, shortened: as §1
# [6] = biological target: Fuc(a1-2)[Gal(a1-3)]Gal(b1-4)[Fuc(a1-3)]GlcNAc
# Procedure, shortened: as §1
# [7] = biological target: Fuc(a1-2)[Gal(a1-3)]Gal(b1-4)[Fuc(a1-3)]GlcNAc(b1-3)GalNAc
# Procedure, shortened: as §1
# [8] = biological target: Fuc(a1-2)[Gal(a1-4)]Gal(b1-4)GlcNAc
# Procedure, shortened: as §1
# [9] = biological target: Fuc(a1-2)[GalNAc(a1-3)]Gal
# Procedure, shortened: as §1
# [10] = biological target: Fuc(a1-2)[GalNAc(a1-3)]Gal(b1-3)GalNAc(a1-3)[Fuc(a1-2)]Gal(b1-4)GlcNAc
# Procedure, shortened: as §1
# [11] = biological target: Fuc(a1-2)[GalNAc(a1-3)]Gal(b1-3)GalNAc(b1-3)Gal(a1-4)Gal(b1-4)Glc
# Procedure, shortened: as §1
# [12] = biological target: Fuc(a1-2)[GalNAc(a1-3)]Gal(b1-3)GlcNAc
# Procedure, shortened: as §1
# [13] = biological target: Fuc(a1-2)[GalNAc(a1-3)]Gal(b1-3)GlcNAc(b1-2)Man(a1-3)[Fuc(a1-2)[GalNAc(a1-3)]Gal(b1-3)GlcNAc(b1-2)Man(a1-6)]Man(b1-4)GlcNAc(b1-4)GlcNAc
# Procedure, shortened: as §1
# [14] = biological target: Fuc(a1-2)[GalNAc(a1-3)]Gal(b1-3)GlcNAc(b1-2)Man(a1-3)[Fuc(a1-2)[GalNAc(a1-3)]Gal(b1-3)GlcNAc(b1-2)Man(a1-6)]Man(b1-4)GlcNAc(b1-4)[Fuc(a1-6)]GlcNAc
# Procedure, shortened: as §1
# [15] = biological target: Fuc(a1-2)[GalNAc(a1-3)]Gal(b1-3)GlcNAc(b1-3)GalNAc
# Procedure, shortened: as §1
# [16] = biological target: Fuc(a1-2)[GalNAc(a1-3)]Gal(b1-3)GlcNAc(b1-6)GalNAc
# Procedure, shortened: as §1
# [17] = biological target: Fuc(a1-2)[GalNAc(a1-3)]Gal(b1-4)Glc
# Procedure, shortened: as §1
# [18] = biological target: Fuc(a1-2)[GalNAc(a1-3)]Gal(b1-4)GlcNAc
# Procedure, shortened: as §1
# [19] = biological target: Fuc(a1-2)[GalNAc(a1-3)]Gal(b1-4)GlcNAc(b1-2)Man
# Procedure, shortened: as §1
# [20] = biological target: Fuc(a1-2)[GalNAc(a1-3)]Gal(b1-4)GlcNAc(b1-2)Man(a1-3)[Fuc(a1-2)[GalNAc(a1-3)]Gal(b1-4)GlcNAc(b1-2)Man(a1-6)]Man(b1-4)GlcNAc(b1-4)GlcNAc
# Procedure, shortened: as §1
# [21] = biological target: Fuc(a1-2)[GalNAc(a1-3)]Gal(b1-4)GlcNAc(b1-2)Man(a1-3)[Fuc(a1-2)[GalNAc(a1-3)]Gal(b1-4)GlcNAc(b1-2)Man(a1-6)]Man(b1-4)GlcNAc(b1-4)[Fuc(a1-6)]GlcNAc
# Procedure, shortened: as §1
# [22] = biological target: Fuc(a1-2)[GalNAc(a1-3)]Gal(b1-4)GlcNAc(b1-3)Gal(b1-4)GlcNAc
# Procedure, shortened: as §1
# [23] = biological target: Fuc(a1-2)[GalNAc(a1-3)]Gal(b1-4)GlcNAc(b1-3)Gal(b1-4)GlcNAc(b1-3)Gal(b1-4)GlcNAc
# Procedure, shortened: as §1
# [24] = biological target: Fuc(a1-2)[GalNAc(a1-3)]Gal(b1-4)GlcNAc(b1-3)GalNAc
# Procedure, shortened: as §1
# [25] = biological target: Fuc(a1-2)[GalNAc(a1-3)]Gal(b1-4)GlcNAc(b1-3)[Fuc(a1-2)[GalNAc(a1-3)]Gal(b1-4)GlcNAc(b1-6)]GalNAc
# Procedure, shortened: as §1
# [26] = biological target: Fuc(a1-2)[GalNAc(a1-3)]Gal(b1-4)GlcNAc(b1-6)GalNAc
# Procedure, shortened: as §1
# [27] = biological target: Fuc(a1-2)[GalNAc(a1-3)]Gal(b1-4)[Fuc(a1-3)]GlcNAc
# Procedure, shortened: as §1
# [28] = biological target: Fuc(a1-2)[GalNAc(a1-3)]Gal(b1-4)[Fuc(a1-3)]GlcNAc(b1-3)GalNAc
# Procedure, shortened: as §1
# [29] = biological target: Fuc(a1-2)[GalNAc(a1-4)]Gal(b1-4)GlcNAc
# Procedure, shortened: as §1
# [30] = biological target: Fuc(a1-2)[GalNAc(b1-3)]Gal
# Procedure, shortened: as §1
# Fuc(a1-3)GlcNAc = biological target: Fuc(a1-3)GlcNAc
# Procedure, shortened: as §1
# [31] = biological target: Fuc(a1-3)[Gal(b1-4)]Glc6S
# Procedure, shortened: as §1
# [32] = biological target: Fuc(a1-3)[Gal(b1-4)]GlcNAc
# Procedure, shortened: as §1
# [33] = biological target: Fuc(a1-3)[Gal(b1-4)]GlcNAc(b1-2)Man
# Procedure, shortened: as §1
# [34] = biological target: Fuc(a1-3)[Gal(b1-4)]GlcNAc(b1-2)Man(a1-3)[Fuc(a1-3)[Gal(b1-4)]GlcNAc(b1-2)Man(a1-6)]Man(b1-4)GlcNAc(b1-4)GlcNAc
# Procedure, shortened: as §1
# [35] = biological target: Fuc(a1-3)[Gal(b1-4)]GlcNAc(b1-2)Man(a1-3)[Fuc(a1-3)[Gal(b1-4)]GlcNAc(b1-2)Man(a1-6)]Man(b1-4)GlcNAc(b1-4)[Fuc(a1-6)]GlcNAc
# Procedure, shortened: as §1
# [36] = biological target: Fuc(a1-3)[Gal(b1-4)]GlcNAc(b1-3)Gal(b1-3)[Fuc(a1-4)]GlcNAc
# Procedure, shortened: as §1
binder,measurement,setting,value
B1,glycan array binding signal (z-score),[1],0.289
same,glycan array binding signal (z-score),[2],-0.224
same,glycan array binding signal (z-score),[3],-0.545
same,glycan array binding signal (z-score),[4],-0.718
same,glycan array binding signal (z-score),[5],-0.757
same,glycan array binding signal (z-score),[6],-0.213
same,glycan array binding signal (z-score),[7],0.152
same,glycan array binding signal (z-score),[8],0.673
same,glycan array binding signal (z-score),[9],1.07
same,glycan array binding signal (z-score),[10],0.44
same,glycan array binding signal (z-score),[11],-0.694
same,glycan array binding signal (z-score),[12],-0.761
same,glycan array binding signal (z-score),[13],-0.832
same,glycan array binding signal (z-score),[14],-0.636
same,glycan array binding signal (z-score),[15],-0.636
same,glycan array binding signal (z-score),[16],-0.861
same,glycan array binding signal (z-score),[17],0.999
same,glycan array binding signal (z-score),[18],0.117
same,glycan array binding signal (z-score),[19],0.311
same,glycan array binding signal (z-score),[20],-0.447
same,glycan array binding signal (z-score),[21],0.615
same,glycan array binding signal (z-score),[22],-0.693
same,glycan array binding signal (z-score),[23],-0.727
same,glycan array binding signal (z-score),[24],0.152
same,glycan array binding signal (z-score),[25],-0.188
same,glycan array binding signal (z-score),[26],-1.06
same,glycan array binding signal (z-score),[27],0.349
same,glycan array binding signal (z-score),[28],0.248
same,glycan array binding signal (z-score),[29],-0.599
same,glycan array binding signal (z-score),[30],3.23
same,glycan array binding signal (z-score),Fuc(a1-3)GlcNAc,-0.098
same,glycan array binding signal (z-score),[31],0.511
same,glycan array binding signal (z-score),[32],0.408
same,glycan array binding signal (z-score),[33],-0.868
same,glycan array binding signal (z-score),[34],-0.684
same,glycan array binding signal (z-score),[35],-0.798
same,glycan array binding signal (z-score),[36],0.846

# 7 entries from above, with tabs.
binder	measurement	setting	value
B1	glycan array binding signal (z-score)	[26]	-1.06
same	glycan array binding signal (z-score)	[27]	0.349
same	glycan array binding signal (z-score)	[28]	0.248
same	glycan array binding signal (z-score)	[29]	-0.599
same	glycan array binding signal (z-score)	[30]	3.23
same	glycan array binding signal (z-score)	Fuc(a1-3)GlcNAc	-0.098
same	glycan array binding signal (z-score)	[31]	0.511
